Measured values from the supplement of paper PMC11098740.
± gives the standard deviation of the averaged measurements. The list shows a part of the results. Single values are uncertain, as repeats are few or missing.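 Test system: a mixed pool of 41 HAP1 clones in which 61 cancer-associated proteins carry fluorescent tags inserted into introns, and each clone is identified from its image pattern. Read-outs are compared with DMSO-treated control wells. The BRD4 degrader dBET6 served as the positive control.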

By UniProt entry, the sequences of proteins in these tests, tags left out.
UniProt O14980, whole entry: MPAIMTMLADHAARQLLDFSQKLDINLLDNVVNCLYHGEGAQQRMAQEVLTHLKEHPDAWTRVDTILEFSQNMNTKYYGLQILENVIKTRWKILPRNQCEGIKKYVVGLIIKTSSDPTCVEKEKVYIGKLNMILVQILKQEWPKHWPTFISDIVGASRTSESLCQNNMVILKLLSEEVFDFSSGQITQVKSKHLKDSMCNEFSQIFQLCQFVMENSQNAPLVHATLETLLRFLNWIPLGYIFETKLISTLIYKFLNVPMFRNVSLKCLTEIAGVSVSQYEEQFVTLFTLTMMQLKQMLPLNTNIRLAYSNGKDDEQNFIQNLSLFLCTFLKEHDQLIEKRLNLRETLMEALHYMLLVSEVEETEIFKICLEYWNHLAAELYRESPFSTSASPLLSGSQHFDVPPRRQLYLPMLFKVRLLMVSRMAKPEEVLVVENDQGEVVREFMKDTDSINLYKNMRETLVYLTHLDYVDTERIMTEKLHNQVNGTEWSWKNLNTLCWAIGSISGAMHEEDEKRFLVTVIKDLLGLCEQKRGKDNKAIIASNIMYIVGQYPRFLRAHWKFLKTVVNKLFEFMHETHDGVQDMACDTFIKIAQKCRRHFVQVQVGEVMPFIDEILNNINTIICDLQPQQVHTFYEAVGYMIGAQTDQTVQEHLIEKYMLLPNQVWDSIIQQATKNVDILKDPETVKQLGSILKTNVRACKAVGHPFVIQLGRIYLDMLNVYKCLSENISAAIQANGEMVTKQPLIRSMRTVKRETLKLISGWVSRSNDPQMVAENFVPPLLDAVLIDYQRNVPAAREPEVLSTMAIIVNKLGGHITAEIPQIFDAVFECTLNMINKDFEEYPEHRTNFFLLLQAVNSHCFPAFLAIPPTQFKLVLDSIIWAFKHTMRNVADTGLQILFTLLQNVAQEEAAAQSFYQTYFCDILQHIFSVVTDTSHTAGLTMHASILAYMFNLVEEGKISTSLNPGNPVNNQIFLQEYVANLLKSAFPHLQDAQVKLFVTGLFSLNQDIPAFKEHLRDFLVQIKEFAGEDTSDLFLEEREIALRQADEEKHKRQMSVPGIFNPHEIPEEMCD

The compounds below were run against XPO1 (intron 15 mScarlet tag, HAP1) (UniProt O14980) (assay: XPO1 fluorescence intensity change vs DMSO (log2 fold change); higher = more XPO1 protein). Details: 6 h.

SMILES	XPO1 fluorescence intensity change (log2)
CC(=O)OC[C@H]1O[C@@H]([S-])[C@H](OC(C)=O)[C@@H](OC(C)=O)[C@@H]1OC(C)=O.CCP(CC)CC.[Au+] [Auranofin] (10 µM)	0.0463
CCC(=C/[C@H](C)C/C=C/C(C)=C/[C@@H](C)C(=O)[C@@H](C)[C@H](O)[C@@H](C)C/C(C)=C/C(=O)O)/C=C/[C@@H]1OC(=O)C=C[C@@H]1C [Leptomycin B] (0.01 µM)	-0.219
CCCc1nc(C(C)(C)O)c(C(=O)O)n1Cc1ccc(-c2ccccc2-c2nnn[nH]2)cc1 [Olmesartan] (10 µM)	-0.0325
CN(C)C/C=C/C(=O)Nc1cc2c(Nc3ccc(F)c(Cl)c3)ncnc2cc1O[C@H]1CCOC1 [Afatinib] (10 µM)	0.243
O=C(O)C1(C(=O)O)CCC1.[NH2-].[NH2-].[Pt+2] [Carboplatin] (20 µM)	0.172
O=[N+]([O-])c1cnc(CO)n1CCO [Hydroxymetronidazole] (10 µM)	0.0165
CN(C)C(=O)C(CCN1CCC(O)(c2ccc(Cl)cc2)CC1)(c1ccccc1)c1ccccc1 [Loperamide] (10.00034001 µM)	0.137
CC(=O)O[C@H]1C(=O)[C@@]2(C)[C@H]([C@H](OC(=O)c3ccccc3)[C@]3(O)C[C@H](OC(=O)[C@H](O)[C@@H](NC(=O)c4ccccc4)c4ccccc4)C(C)=C1C3(C)C)[C@]1(OC(C)=O)CO[C@@H]1C[C@@H]2O [Paclitaxel] (0.065394 µM)	0.0406
CC(C)[C@@H]1NC(=O)[C@H](CCCCN)NC(=O)[C@@H](Cc2c[nH]c3ccccc23)NC(=O)[C@H](Cc2ccc(O)cc2)NC(=O)[C@@H](NC(=O)[C@H](N)Cc2ccc3ccccc3c2)CSSC[C@@H](C(=O)N[C@H](C(N)=O)[C@@H](C)O)NC1=O [Lanreotide Acetate] (20 µM)	-0.166
CC(C)C[C@H](NC(=O)[C@H](Cc1ccccc1)NC(=O)c1cnccn1)B(O)O [Bortezomib] (0.00595 µM)	-0.0522 ± 0.075
Cc1ccc(NC(=O)c2ccc(CN3CCN(C)CC3)cc2)cc1Nc1nc(-c2cccnc2)cs1 [Masitinib] (10 µM)	0.118
COc1cc(C(=O)NS(=O)(=O)c2ccccc2C)ccc1Cc1cn(C)c2ccc(NC(=O)OC3CCCC3)cc12 [Zafirlukast] (10.0009 µM)	-0.0637
COc1cc2ncnc(Nc3ccc(F)c(Cl)c3)c2cc1OCCCN1CCOCC1 [Gefitinib] (20 µM)	-0.0432
CC[C@]1(O)C[C@@H]2CN(CCc3c([nH]c4ccccc34)[C@@](C(=O)OC)(c3cc4c(cc3OC)N(C)[C@H]3[C@@](O)(C(=O)OC)[C@H](OC(C)=O)[C@]5(CC)C=CCN6CC[C@]43[C@@H]65)C2)C1 [Vinblastine] (20 µM)	0.211
O=c1n(CCCN2CCN(c3cccc(Cl)c3)CC2)nc2ccccn12 [Trazodone] (10 µM)	-0.0279
N[C@@H](Cc1cc(I)c(Oc2ccc(O)c(I)c2)c(I)c1)C(=O)O [Liothyronine] (10 µM)	0.0329
Cc1cc(Nc2ncc(Cl)c(Nc3ccccc3S(=O)(=O)C(C)C)n2)c(OC(C)C)cc1C1CCNCC1 [Ceritinib] (10 µM)	0.0804
COc1ccc2c3c1O[C@H]1C[C@@H](O)C=C[C@@]31CCN(C)C2 [Galantamine] (10 µM)	-0.133
CCCS(=O)(=O)Nc1ccc(F)c(C(=O)c2c[nH]c3ncc(-c4ccc(Cl)cc4)cc23)c1F [Vemurafenib] (20 µM)	0.0112
Clc1ccc(C(c2ccccc2Cl)C(Cl)Cl)cc1 (stereo unspecified) [Mitotane] (10 µM)	-0.26
NC(=O)c1ncn([C@@H]2O[C@H](COP(=O)(O)OP(=O)(O)OP(=O)(O)O)[C@@H](O)[C@H]2O)n1 [Ribavirin 5'-Triphosphate] (10 µM)	0.00902
CN(C)c1nc(N(C)C)nc(N(C)C)n1 [Altretamine] (20 µM)	-0.0416
COc1cccc2c1C(=O)c1c(O)c3c(c(O)c1C2=O)C[C@@](O)(C(=O)CO)C[C@@H]3O[C@H]1C[C@H](N)[C@H](O)[C@H](C)O1 [Doxorubicin] (0.09215 µM)	0.149
NC[C@H]1CC[C@H](C(=O)O)CC1 [Tranexamic Acid] (10 µM)	0.106
O=c1[nH]cc(F)c(=O)[nH]1 [5-Fluorouracil] (20 µM)	-0.0643
CC(C)NCC(O)COc1ccc(CC(N)=O)cc1 (stereo unspecified) [Atenolol] (10 µM)	0.123

Structures shown so far with an NH in an aromatic ring:
SMILES	XPO1 fluorescence intensity change (log2)
CCCc1nc(C(C)(C)O)c(C(=O)O)n1Cc1ccc(-c2ccccc2-c2nnn[nH]2)cc1 [Olmesartan] (10 µM)	-0.0325
CC(C)[C@@H]1NC(=O)[C@H](CCCCN)NC(=O)[C@@H](Cc2c[nH]c3ccccc23)NC(=O)[C@H](Cc2ccc(O)cc2)NC(=O)[C@@H](NC(=O)[C@H](N)Cc2ccc3ccccc3c2)CSSC[C@@H](C(=O)N[C@H](C(N)=O)[C@@H](C)O)NC1=O [Lanreotide Acetate] (20 µM)	-0.166
CC[C@]1(O)C[C@@H]2CN(CCc3c([nH]c4ccccc34)[C@@](C(=O)OC)(c3cc4c(cc3OC)N(C)[C@H]3[C@@](O)(C(=O)OC)[C@H](OC(C)=O)[C@]5(CC)C=CCN6CC[C@]43[C@@H]65)C2)C1 [Vinblastine] (20 µM)	0.211
CCCS(=O)(=O)Nc1ccc(F)c(C(=O)c2c[nH]c3ncc(-c4ccc(Cl)cc4)cc23)c1F [Vemurafenib] (20 µM)	0.0112
O=c1[nH]cc(F)c(=O)[nH]1 [5-Fluorouracil] (20 µM)	-0.0643
